# Laboratory results: the supplement of paper PMC10735217
# Structures can show the parent of a compound that is named as a salt. The list shows a part of the results. Repeats in this data set agree poorly, so a single value says little.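 In a drug-repurposing library screen, luminescence reads luciferase driven by eight TEAD-binding elements, stably integrated into human kidney-derived cells. Compounds scoring over five robust Z scores above the plate mean are called hits.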
# Test system: HEK293A TEAD-LUC reporter
# Experiment: TEAD-luciferase reporter activity (YAP activation), robust Z score vs plate; higher = stronger YAP/TEAD activation
# Conditions: 24 h
Compound,TEAD-luciferase reporter activity (compound concentration: 200 nM),TEAD-luciferase reporter activity (compound concentration: 2 uM),TEAD-luciferase reporter activity (compound concentration: 10 uM)
Brc1ccc(C(Cn2ccnc2)c2ccccc2)cc1 (stereo not given),inactive: -1.43,inactive: -0.939,inactive: 1.37
CN(C)CCCNc1c(C#N)[n+]([O-])c2cc(Cl)ccc2[n+]1[O-],inactive: -0.88,,inactive: 1.24
CC(=O)Nc1cccc2c1c(Sc1ccc(Cl)cc1)c(C)n2CC(=O)O,inactive: -0.773,inactive: -0.177,inactive: -2.97
COc1ccc(C(=O)NCCCCN2CCN(c3csc4cc(C(F)(F)F)ccc34)CC2)cc1,inactive: -1.51,inactive: -0.115,inactive: 3.78
Cc1nc2n(c(=O)c1CCN1CCC(c3noc4cc(F)ccc34)CC1)CCCC2 [risperidone 4wk long-acting injection (IM)],,inactive: -2.88,
Cc1nc2n(c(=O)c1CCN1CCC(c3noc4cc(F)ccc34)CC1)CCCC2,inactive: -0.967,,inactive: -0.0159
FC(F)(F)C(F)(F)C(F)(F)C(F)(F)C(F)(F)C(F)(F)C(F)(F)C(F)(F)Br [Imagent BP],inactive: -0.392,inactive: -0.332,inactive: -0.73
C=C[C@H]1C[C@]1(NC(=O)[C@@H]1C[C@@H](Oc2ncc(OC)c3ccc(Cl)cc23)CN1C(=O)[C@@H](NC(=O)OC(C)(C)C)C(C)(C)C)C(=O)NS(=O)(=O)C1CC1 [asunaprevir],inactive: -0.196,inactive: -0.583,inactive: -0.126
Cc1c2oc3c(C)ccc(C(=O)NC4C(=O)NC(C(C)C)C(=O)N5CCCC5C(=O)N(C)CC(=O)N(C)C(C(C)C)C(=O)OC4C)c3nc-2c(C(=O)NC2C(=O)NC(C(C)C)C(=O)N3CCCC3C(=O)N(C)CC(=O)N(C)C(C(C)C)C(=O)OC2C)c(N)c1=O (stereo not given) [Actinomycin D],inactive: -0.875,,inactive: -0.767
Cc1c2oc3c(C)ccc(C(=O)NC4C(=O)NC(C(C)C)C(=O)N5CCCC5C(=O)N(C)CC(=O)N(C)C(C(C)C)C(=O)OC4C)c3nc-2c(C(=O)NC2C(=O)NC(C(C)C)C(=O)N3CCCC3C(=O)N(C)CC(=O)N(C)C(C(C)C)C(=O)OC2C)c(N)c1=O (stereo not given) [dactinomycin],,inactive: -3.14,
CC[C@@H](COC(=O)c1cc(OC)c(OC)c(OC)c1)N(C)CCN(C)[C@@H](CC)COC(=O)c1cc(OC)c(OC)c(OC)c1,inactive: -1.07,inactive: 1.93,inactive: -0.281
Cc1cnc(C[S@@+]([O-])c2nc3ccccc3[nH]2)c(C)c1OCC1COC(C)(C)OC1,inactive: -0.144,inactive: -0.345,inactive: 2.6
CC1(C)S[C@@H]2[C@H](NC(=O)C(C(=O)[O-])c3ccccc3)C(=O)N2[C@H]1C(=O)[O-] (stereo not given in full) [Carbenicillin (disodium)],inactive: -0.337,inactive: -0.214,inactive: -0.707
NC(Cc1ccccc1)C(=O)O (stereo not given),inactive: -0.57,,inactive: 0.926
O=C1O[C@@H](Cc2ccccc2)CN1[C@H](CCN1CCOCC1)c1ccccc1,inactive: -0.917,inactive: 0.0516,inactive: 0.123
CCCN1CCCCC12Cc1ccccc1CN(C(=O)CC)C2 (stereo not given),inactive: 1.97,,inactive: -1.13
CC[N+](CC)(CC)CC(=O)Nc1c(C)cccc1C,,inactive: 0.121,

# Limited to TEAD-luciferase reporter activity (compound concentration: 10 uM) and TEAD-luciferase reporter activity (compound concentration: 200 nM) (2 entries from above):
Compound | TEAD-luciferase reporter activity (compound concentration: 10 uM) | TEAD-luciferase reporter activity (compound concentration: 200 nM)
Cc1c2oc3c(C)ccc(C(=O)NC4C(=O)NC(C(C)C)C(=O)N5CCCC5C(=O)N(C)CC(=O)N(C)C(C(C)C)C(=O)OC4C)c3nc-2c(C(=O)NC2C(=O)NC(C(C)C)C(=O)N3CCCC3C(=O)N(C)CC(=O)N(C)C(C(C)C)C(=O)OC2C)c(N)c1=O (stereo not given) [Actinomycin D] | inactive: -0.767 | inactive: -0.875
CCCN1CCCCC12Cc1ccccc1CN(C(=O)CC)C2 (stereo not given) | inactive: -1.13 | inactive: 1.97

# Further results

Compound,TEAD-luciferase reporter activity (compound concentration: 200 nM),TEAD-luciferase reporter activity (compound concentration: 2 uM),TEAD-luciferase reporter activity (compound concentration: 10 uM)
CC[N+](CC)(CC)CC(=O)Nc1c(C)cccc1C [Lidocaine N-ethyl bromide quaternary salt],inactive: 0.159,,inactive: 2.85
CCN(CC)CCCC(C)Nc1cc(OC)cc2cccnc12 (stereo not given),inactive: -1.85,inactive: -2.07,inactive: -0.344
CN1CCCCC12Cc1ccccc1CN(C(=O)CCCC(=O)O)C2 (stereo not given),inactive: -0.7,,inactive: 0.801
N#Cc1ccc(Oc2ccc3c(c2)COB3O)c(O)c1,inactive: -0.0539,inactive: -1.28,inactive: -0.813
C=CC(=O)N1CCC(CNc2ncnc(N)c2-c2ccc(Oc3ccccc3)cc2)CC1 [Evobrutinib],inactive: -1.45,,inactive: -0.124
COC(=O)CCN1C(=O)NC(Cc2ccccc2)(c2ccccc2)C1=O (stereo not given),inactive: 0.65,inactive: 0.114,inactive: 1.05
N=C(N)c1ccc(/C=C/c2ccc(C(=N)N)cc2O)cc1 [Hydroxystilbamidine bis(methanesulfonate],inactive: 0.99,,inactive: 0.768
CC(C)=CCOc1cc(NC(=O)c2cccnc2)ccc1Cl,inactive: -0.808,inactive: -0.828,inactive: 1.81
Cc1nc(N(C)C(=O)Cc2ccc(-c3ccccn3)cc2)sc1S(N)(=O)=O,inactive: 0.55,inactive: 0.226,inactive: 1.76
Cc1nc(N(C)C(=O)Cc2ccc(-c3ccccn3)cc2)sc1S(N)(=O)=O [Pritelivir],,inactive: -2.12,
CC(COc1ccccc1)N[C@@H](CO)[C@H](O)c1ccccc1 (stereo not given in full),inactive: -0.0751,inactive: -0.333,inactive: 2.53
N=C(NC(N)=O)Nc1c(Cl)cccc1Cl [Biclodil],inactive: -0.823,inactive: 1.02,inactive: -1.55
CC(C)[C@H](NC(=O)OCc1ccccn1)C(=O)N[C@@H](Cc1ccccc1)[C@@H](O)C[C@H](Cc1ccccc1)NC(=O)OCc1cccnc1,inactive: -1.24,inactive: -1.29,inactive: -0.834
NC(=O)c1ccc(I)c([N+](=O)[O-])c1 [Iniparib],inactive: 2.43,inactive: -0.935,inactive: -0.496
O=C(N[C@@H]1COc2nc([N+](=O)[O-])cn2C1)OCc1ccc(OC(F)(F)F)cc1,inactive: 0.0648,inactive: 0.716,inactive: 2.26
CCOc1ccc2c(-c3cccc(F)c3)nn(CC(=O)N(C)c3ccc4nc(C)oc4c3)c(=O)c2c1,inactive: -0.415,inactive: 0.816,inactive: -0.0698
CCOC(=O)CCc1nsnc1OCC(O)CNC(C)(C)C (stereo not given),inactive: -0.52,inactive: -0.943,inactive: -0.925
